Reference: publication PMC9537309

Biological target: T1, FLAG-tagged DND1 wild-type (Dead End, full-length human protein 1-353) (human) (UniProt Q8IYX4)
T1 sequence: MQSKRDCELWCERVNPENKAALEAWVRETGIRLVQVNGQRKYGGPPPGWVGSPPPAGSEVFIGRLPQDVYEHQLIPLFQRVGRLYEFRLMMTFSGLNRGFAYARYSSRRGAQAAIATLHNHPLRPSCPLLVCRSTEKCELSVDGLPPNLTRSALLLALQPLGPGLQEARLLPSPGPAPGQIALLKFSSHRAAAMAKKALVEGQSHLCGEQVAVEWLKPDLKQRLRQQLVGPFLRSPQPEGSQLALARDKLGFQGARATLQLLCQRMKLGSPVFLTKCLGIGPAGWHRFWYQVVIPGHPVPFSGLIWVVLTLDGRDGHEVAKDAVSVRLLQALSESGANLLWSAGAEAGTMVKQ
Test: affinity purification with mass spectrometry; lysate of HEK293T cells transfected with FLAG-tagged DND1 WT, R98A or 1-235 on FLAG-M2 magnetic beads overnight at 4 °C; IP-Lysis buffer 50 mM Tris-HCl pH 7.4, 150 mM NaCl, 1 mM EDTA, 0.5% Triton X-100; trypsin digestion on the beads, shotgun LC-MS/MS; three biological replicates; no RNase treatment described

B1: MEX3A (protein, UniProt A1L020 1-520)
chain: MPSLVVSGIMERNGGFGELGCFGGSAKDRGLLEDERALQLALDQLCLLGLGEPPAPTAGEDGGGGGGGAPAQPAAPPQPAPPPPPAAPPAAPTAAPAAQTPQPPTAPKGASDAKLCALYKEAELRLKGSSNTTECVPVPTSEHVAEIVGRQGCKIKALRAKTNTYIKTPVRGEEPVFMVTGRREDVATARREIISAAEHFSMIRASRNKSGAAFGVAPALPGQVTIRVRVPYRVVGLVVGPKGATIKRIQQQTNTYIITPSRDRDPVFEITGAPGNVERAREEIETHIAVRTGKILEYNNENDFLAGSPDAAIDSRYSDAWRVHQPGCKPLSTFRQNSLGCIGECGVDSGFEAPRLGEQGGDFGYGGYLFPGYGVGKQDVYYGVAETSPPLWAGQENATPTSVLFSSASSSSSSSAKARAGPPGAHRSPATSAGPELAGLPRRPPGEPLQGFSKLGGGGLRSPGGGRDCMVCFESEVTAALVPCGHNLFCMECAVRICERTDPECPVCHITATQAIRIFS
For B1, the binding was “binds”.

B2: MATR3 (protein, UniProt P43243 1-847)
chain: MSKSFQQSSLSRDSQGHGRDLSAAGIGLLAAATQSLSMPASLGRMNQGTARLASLMNLGMSSSLNQQGAHSALSSASTSSHNLQSIFNIGSRGPLPLSSQHRGDADQASNILASFGLSARDLDELSRYPEDKITPENLPQILLQLKRRRTEEGPTLSYGRDGRSATREPPYRVPRDDWEEKRHFRRDSFDDRGPSLNPVLDYDHGSRSQESGYYDRMDYEDDRLRDGERCRDDSFFGETSHNYHKFDSEYERMGRGPGPLQERSLFEKKRGAPPSSNIEDFHGLLPKGYPHLCSICDLPVHSNKEWSQHINGASHSRRCQLLLEIYPEWNPDNDTGHTMGDPFMLQQSTNPAPGILGPPPPSFHLGGPAVGPRGNLGAGNGNLQGPRHMQKGRVETSRVVHIMDFQRGKNLRYQLLQLVEPFGVISNHLILNKINEAFIEMATTEDAQAAVDYYTTTPALVFGKPVRVHLSQKYKRIKKPEGKPDQKFDQKQELGRVIHLSNLPHSGYSDSAVLKLAEPYGKIKNYILMRMKSQAFIEMETREDAMAMVDHCLKKALWFQGRCVKVDLSEKYKKLVLRIPNRGIDLLKKDKSRKRSYSPDGKESPSDKKSKTDGSQKTESSTEGKEQEEKSGEDGEKDTKDDQTEQEPNMLLESEDELLVDEEEAAALLESGSSVGDETDLANLGDVASDGKKEPSDKAVKKDGSASAAAKKKLKKVDKIEELDQENEAALENGIKNEENTEPGAESSENADDPNKDTSENADGQSDENKDDYTIPDEYRIGPYQPNVPVGIDYVIPKTGFYCKLCSLFYTNEEVAKNTHCSSLPHYQKLKKFLNKLAEERRQKKET
In the case of B2, the binding is reported as “binds”.

B3: TRAP1 (protein, UniProt Q12931 60-704)
chain: STQTAEDKEEPLHSIISSTESVQGSTSKHEFQAETKKLLDIVARSLYSEKEVFIRELISNASDALEKLRHKLVSDGQALPEMEIHLQTNAEKGTITIQDTGIGMTQEELVSNLGTIARSGSKAFLDALQNQAEASSKIIGQFGVGFYSAFMVADRVEVYSRSAAPGSLGYQWLSDGSGVFEIAEASGVRTGTKIIIHLKSDCKEFSSEARVRDVVTKYSNFVSFPLYLNGRRMNTLQAIWMMDPKDVREWQHEEFYRYVAQAHDKPRYTLHYKTDAPLNIRSIFYVPDMKPSMFDVSRELGSSVALYSRKVLIQTKATDILPKWLRFIRGVVDSEDIPLNLSRELLQESALIRKLRDVLQQRLIKFFIDQSKKDAEKYAKFFEDYGLFMREGIVTATEQEVKEDIAKLLRYESSALPSGQLTSLSEYASRMRAGTRNIYYLCAPNRHLAEHSPYYEAMKKKDTEVLFCFEQFDELTLLHLREFDKKKLISVETDIVVDHYKEEKFEDRSPAAECLSEKETEELMAWMRNVLGSRVTNVKVTLRLDTHPAMVTVLEMGAARHFLRMQQLAKTQEERAQLLQPTLEINPRHALIKKLNQLRASEPGLAQLLVDQIYENAMIAAGLVDDPRAMVGRLNELLVKALERH
In the case of B3, the binding is reported as “binds”.

B4: RNA helicase MOV10 (protein, UniProt Q9HCE1 1-1003)
chain: MPSKFSCRQLREAGQCFESFLVVRGLDMETDRERLRTIYNRDFKISFGTPAPGFSSMLYGMKIANLAYVTKTRVRFFRLDRWADVRFPEKRRMKLGSDISKHHKSLLAKIFYDRAEYLHGKHGVDVEVQGPHEARDGQLLIRLDLNRKEVLTLRLRNGGTQSVTLTHLFPLCRTPQFAFYNEDQELPCPLGPGECYELHVHCKTSFVGYFPATVLWELLGPGESGSEGAGTFYIARFLAAVAHSPLAAQLKPMTPFKRTRITGNPVVTNRIEEGERPDRAKGYDLELSMALGTYYPPPRLRQLLPMLLQGTSIFTAPKEIAEIKAQLETALKWRNYEVKLRLLLHLEELQMEHDIRHYDLESVPMTWDPVDQNPRLLTLEVPGVTESRPSVLRGDHLFALLSSETHQEDPITYKGFVHKVELDRVKLSFSMSLLSRFVDGLTFKVNFTFNRQPLRVQHRALELTGRWLLWPMLFPVAPRDVPLLPSDVKLKLYDRSLESNPEQLQAMRHIVTGTTRPAPYIIFGPPGTGKTVTLVEAIKQVVKHLPKAHILACAPSNSGADLLCQRLRVHLPSSIYRLLAPSRDIRMVPEDIKPCCNWDAKKGEYVFPAKKKLQEYRVLITTLITAGRLVSAQFPIDHFTHIFIDEAGHCMEPESLVAIAGLMEVKETGDPGGQLVLAGDPRQLGPVLRSPLTQKHGLGYSLLERLLTYNSLYKKGPDGYDPQFITKLLRNYRSHPTILDIPNQLYYEGELQACADVVDRERFCRWAGLPRQGFPIIFHGVMGKDEREGNSPSFFNPEEAATVTSYLKLLLAPSSKKGKARLSPRSVGVISPYRKQVEKIRYCITKLDRELRGLDDIKDLKVGSVEEFQGQERSVILISTVRSSQSFVQLDLDFNLGFLKNPKRFNVAVTRAKALLIIVGNPLLLGHDPDWKVFLEFCKENGGYTGCPFPAKLDLQQGQNLLQGLSKLSPSTSGPHSHDYLPQEREGEGGLSLQVEPEWRNEL
B4 was tested, and the binding was “binds”.

B5: HNRNPL (protein, UniProt P14866 1-589)
chain: MSRRLLPRAEKRRRRLEQRQQPDEQRRRSGAMVKMAAAGGGGGGGRYYGGGSEGGRAPKRLKTDNAGDQHGGGGGGGGGAGAAGGGGGGENYDDPHKTPASPVVHIRGLIDGVVEADLVEALQEFGPISYVVVMPKKRQALVEFEDVLGACNAVNYAADNQIYIAGHPAFVNYSTSQKISRPGDSDDSRSVNSVLLFTILNPIYSITTDVLYTICNPCGPVQRIVIFRKNGVQAMVEFDSVQSAQRAKASLNGADIYSGCCTLKIEYAKPTRLNVFKNDQDTWDYTNPNLSGQGDPGSNPNKRQRQPPLLGDHPAEYGGPHGGYHSHYHDEGYGPPPPHYEGRRMGPPVGGHRRGPSRYGPQYGHPPPPPPPPEYGPHADSPVLMVYGLDQSKMNCDRVFNVFCLYGNVEKVKFMKSKPGAAMVEMADGYAVDRAITHLNNNFMFGQKLNVCVSKQPAIMPGQSYGLEDGSCSYKDFSESRNNRFSTPEQAAKNRIQHPSNVLHFFNAPLEVTEENFFEICDELGVKRPSSVKVFSGKSERSSSGLLEWESKSDALETLGFLNHYQMKNPNGPYPYTLKLCFSTAQHAS
With B5 the binding was “binds”.

B6: DHX30 (protein, UniProt Q7L2E3 1-1194)
chain: MFSLDSFRKDRAQHRQRQCKLPPPRLPPMCVNPTPGGTISRASRDLLKEFPQPKNLLNSVIGRALGISHAKDKLVYVHTNGPKKKKVTLHIKWPKSVEVEGYGSKKIDAERQAAAAACQLFKGWGLLGPRNELFDAAKYRVLADRFGSPADSWWRPEPTMPPTSWRQLNPESIRPGGPGGLSRSLGREEEEDEEEELEEGTIDVTDFLSMTQQDSHAPLRDSRGSSFEMTDDDSAIRALTQFPLPKNLLAKVIQIATSSSTAKNLMQFHTVGTKTKLSTLTLLWPCPMTFVAKGRRKAEAENKAAALACKKLKSLGLVDRNNEPLTHAMYNLASLRELGETQRRPCTIQVPEPILRKIETFLNHYPVESSWIAPELRLQSDDILPLGKDSGPLSDPITGKPYVPLLEAEEVRLSQSLLELWRRRGPVWQEAPQLPVDPHRDTILNAIEQHPVVVISGDTGCGKTTRIPQLLLERYVTEGRGARCNVIITQPRRISAVSVAQRVSHELGPSLRRNVGFQVRLESKPPSRGGALLFCTVGILLRKLQSNPSLEGVSHVIVDEVHERDVNTDFLLILLKGLQRLNPALRLVLMSATGDNERFSRYFGGCPVIKVPGFMYPVKEHYLEDILAKLGKHQYLHRHRHHESEDECALDLDLVTDLVLHIDARGEPGGILCFLPGWQEIKGVQQRLQEALGMHESKYLILPVHSNIPMMDQKAIFQQPPVGVRKIVLATNIAETSITINDIVHVVDSGLHKEERYDLKTKVSCLETVWVSRANVIQRRGRAGRCQSGFAYHLFPRSRLEKMVPFQVPEILRTPLENLVLQAKIHMPEKTAVEFLSKAVDSPNIKAVDEAVILLQEIGVLDQREYLTTLGQRLAHISTDPRLAKAIVLAAIFRCLHPLLVVVSCLTRDPFSSSLQNRAEVDKVKALLSHDSGSDHLAFVRAVAGWEEVLRWQDRSSRENYLEENLLYAPSLRFIHGLIKQFSENIYEAFLVGKPSDCTLASAQCNEYSEEEELVKGVLMAGLYPNLIQVRQGKVTRQGKFKPNSVTYRTKSGNILLHKSTINREATRLRSRWLTYFMAVKSNGSVFVRDSSQVHPLAVLLLTDGDVHIRDDGRRATISLSDSDLLRLEGDSRTVRLLKELRRALGRMVERSLRSELAALPPSVQEEHGQLLALLAELLRGPCGSFDVRKTADD
B6 was tested, and the binding was “binds”.

Results are given in words; binding and its absence hold for the method and conditions named. In cells and extracts the contact can be indirect. A yes stands for co-enrichment or nearness to the bait. Other partners may have been found. Tags and fused reporters may be left off the sequences shown.
